Experimental findings from PMC7746861, “Acetate Metabolism in Archaea: Characterization of an Acetate Transporter and of Enzymes Involved in Acetate Activation and Gluconeogenesis in Haloferax volcanii” (Frontiers in Microbiology, 2020) are described below.

These are yes or no findings as the source states them, for the method shown.

The test addresses AMP-forming acetyl-CoA synthetase ACS7 from Haloferax volcanii, recombinant (Haloferax volcanii) (UniProt D4GQI5). The test is described as follows: SEC; Superdex 200 HiLoad column (1.6 x 60 cm), flow rate 1 ml per min, calibrated with HMW and LMW kits (GE Healthcare); native mass compared with the subunit mass by SDS-PAGE; 50 mM Tris-HCl, pH 7.5, 1.5 M KCl; both purified. Background: Size exclusion chromatography separates by hydrodynamic size, large species first.

B1: AMP-forming acetyl-CoA synthetase ACS7 from Haloferax volcanii, recombinant (enzyme, UniProt D4GQI5 1-664)
chain: MAQGDAELEARLAEQDEFEPTEEFVAQANVSDAGIYDEFEENWPDCWERAADLLDWDADYDEVLDDSNPPFYEWFTGGELNACYNCVDRHVENGDKNRVAIKWEGEHGETRTYTYQDLYREVNEFAAALRDLGVEEDDVVTLYMPMVPELPIAMLACARIGAPHNVVFAGFSAEALATRMNAADSRFLVTCDGYYRRGDPLDHLDKTNEGLDSVDHGVDATVVVDRLGDDGFDHDLKGNQHDWDDLLEAQSGERVAPVERDAEDMLFLMYTSGTTGQPKGVKHTTGGYLSYATWTSHAVLDIETEDTYWCSADIGWITGHSYIVYGPLALGSTTVMYEGTPDFPNRDRMWELVEKYAVDIFYTAPTAIRAFMKWGSKYPESRDLSSLRLLGTVGEPINPRAWKWYYEHIGNENCPVVDTWWQTETGGMMITTLPGVKNMKPGSAGPPLPGIDAQIVDTDGDEVEPGRAGYLTVNKPWPGMLRTLYDNDERYISEYWAEYSDTDSDDPDDWVYFPEDGAKVDEDGYITVLGRVDDVINVSGHRLGTMEIESAIVGVEGVAEAAVVGGNHEVKGEAVYAYVITEDGYEEGEDLRARIVEGVEDAIGPIARPEQVVFTPELPKTRSGKIMRRLLEDVANGAELGNTSTLRNPEIVGEIEAKVRAQSD
In the case of B1, the binding result is “no binding”.
